According to PubChem BioAssay AID330 (DTP/NCI, 2004):
The list does not hold the whole screen: it gathers tests that were run many times, whatever their T/C, doses with no T/C, and many T/C values between a quarter and a half above the control. Other doses and runs of a compound stand elsewhere. T/C: endpoint of the treated group in % of that of the vehicle group. Some doses have a count of surviving animals in place of a T/C: the source holds a T/C of zero for them, seemingly a mark for toxic or unscored doses. Some doses without a T/C left all or most animals alive at the check, yet need not have been tolerated: survival well below the control is almost never listed, so the zero probably covers shortened survival too. Counts of survivors are from the toxicity check (mostly the fifth day) where no day follows; animals may have died later. Schedule codes are those of the source, taken here to give the interval after Q, in days (D) or hours (H), and the number of doses after X. Some entries were tested several times; the values are given in rising order. Where survival is the endpoint, the PubChem record calls one and a half times the control and up active, and a quarter to a half above the control has no call in these data; cut-offs in other NCI protocols can differ.

Test system: P388 leukemia ip, CD2F1 mice, survival T/C
Experiment: NCI In Vivo Anticancer Drug Screen. Data for tumor model P388 Leukemia (intraperitoneal) in CD2F1 (CDF1) mice
Conditions: T/C endpoint: median survival time, higher T/C = longer survival
[1] = dose: 200.0 mg/kg/injection, schedule: Q01DX009 (ip), vehicle: saline with Tween-80
[2] = dose: 400.0 mg/kg/injection, schedule: Q01DX009 (ip), vehicle: saline with Tween-80
[3] = dose: 200.0 mg/kg/injection, schedule: Q01DX009 (ip), vehicle: Klucel (hydroxypropylcellulose) (HPC)
[4] = dose: 25.0 mg/kg/injection, schedule: Q01DX005 (ip), vehicle: saline with Tween-80
[5] = dose: 50.0 mg/kg/injection, schedule: Q01DX005 (ip), vehicle: saline with Tween-80
[6] = dose: 200.0 mg/kg/injection, schedule: Q01DX005 (ip), vehicle: saline with Tween-80
[7] = dose: 200.0 mg/kg/injection, schedule: Q01DX005 (ip), vehicle: Klucel (hydroxypropylcellulose) (HPC)
[8] = dose: 200.0 mg/kg/injection, schedule: Q04DX003 (ip), vehicle: saline with Tween-80
[9] = dose: 400.0 mg/kg/injection, schedule: Q04DX003 (ip), vehicle: saline with Tween-80
[10] = dose: 50.0 mg/kg/injection, schedule: Q01DX005 (ip), vehicle: saline
[11] = dose: 100.0 mg/kg/injection, schedule: Q01DX005 (ip), vehicle: saline
[12] = dose: 100.0 mg/kg/injection, schedule: Q01DX009 (ip), vehicle: saline
[13] = dose: 200.0 mg/kg/injection, schedule: Q01DX001 (ip), vehicle: saline with Tween-80
[14] = dose: 200.0 mg/kg/injection, schedule: Q04DX002 (ip), vehicle: saline with Tween-80
[15] = dose: 400.0 mg/kg/injection, schedule: Q01DX001 (ip), vehicle: saline with Tween-80
[16] = dose: 200.0 mg/kg/injection, schedule: Q01DX005 (ip), vehicle: saline

For `CC(C)=CCC/C(C)=C/Cc1ccccc1`, the T/C [1] was 127 % of control and the survivor count [2] was 5 of 6.

For `COc1cc2nc(N3CCN(C(=O)c4ccco4)CC3)nc(N)c2cc1OC`, the survivor count (dose: 50.0 mg/kg/injection, schedule: Q01DX009 (ip), vehicle: saline with Tween-80) was 2 of 6, the survivor count (dose: 100.0 mg/kg/injection, schedule: Q01DX009 (ip), vehicle: saline with Tween-80) was 0 of 6 and the survivor count [1] was 0 of 6.

In the case of `COc1ccc2c(C)cc(N/N=C/c3cccc(C)n3)nc2c1`, the survivor count (dose: 400.0 mg/kg/injection, schedule: Q01DX005 (ip), vehicle: Klucel (hydroxypropylcellulose) (HPC)) is reported as 0 of 6.

With `CCSc1nc2ccc(N=Cc3ccc(NS(=O)(=O)c4ccccc4)cc3O)cc2s1` the survivor count [3] was 3 of 6.

`Nc1c(C(=O)NCc2ccccc2)c2nc3c(C(=O)NCc4ccccc4)cccc3oc-2cc1=O` was tested, and the survivor count (dose: 12.5 mg/kg/injection, schedule: Q01DX005 (ip), vehicle: saline with Tween-80) was 6 of 6, the survivor count [4] was 6 of 6 and the survivor count [5] was 6 of 6.

`CCCCOC(=O)[C@@H]1O[C@H]2OC=C[C@H]21` was tested, and the survivor count [4] was 4 of 5, the survivor count [5] was 5 of 5 and the survivor count (dose: 100.0 mg/kg/injection, schedule: Q01DX005 (ip), vehicle: saline with Tween-80) was 3 of 5. For the same compound, the survivor count [6] was 0 of 5.

`CC(=O)SSC12CC3CC(CC(C3)C1)C2` was tested, and the survivor count (dose: 240.0 mg/kg/injection, schedule: Q01DX005 (ip), vehicle: saline with Tween-80) was 3 of 6.

`O=S1(=O)c2cccc(c2)NC(=S)/C([n+]2ccccc2)=C(/[O-])c2ccc(cc2)CC2CCCCN21` (stereo unspecified) was tested, and the survivor count [7] was 6 of 6.

For `CC(C)=CCCC(C)=C(C#N)C#N`, the survivor count [8] was 0 of 6 and the survivor count [9] was 0 of 6.

In the case of `CCOC(=O)C(Cc1ccccc1)NC(=O)N(CCCl)CCCl` (stereo unspecified), the survivor count [8] is reported as 6 of 6, the T/C (dose: 264.0 mg/kg/injection, schedule: Q01DX009 (ip), vehicle: saline with Tween-80) is reported as 136 % of control and the T/C [2] is reported as 136 and 140 % of control. The T/C [9] was 145 % of control and the T/C (dose: 600.0 mg/kg/injection, schedule: Q01DX009 (ip), vehicle: saline with Tween-80) was 131 % of control.

With `Cc1ccc(S(=O)(=O)N(C=O)c2ccccc2)cc1` the survivor count [1] was 5 of 6.

`Nc1ccn([C@@H](C=O)C[C@@H](C=O)CO)c(=O)n1` was tested, and the T/C [10] was 129 % of control and the T/C [11] was 141 % of control.

In the case of `CCCCCCCCCCCCNc1ccc(Cl)cc1`, the T/C [3] is reported as 126 % of control.

In the case of `O=C(O)CSC(=O)Nc1ccc(N=Nc2ccccc2)cc1`, the survivor count [6] is reported as 3 of 6.

With `CCO/C(C)=N\c1nc(C)[nH]c1C(N)=O` the survivor count (dose: 50.0 mg/kg/injection, schedule: Q01DX009 (ip), vehicle: saline) was 6 of 6 and the survivor count [12] was 6 of 6.

`O=C(Nc1ccc(C2=NCCN2)cc1)c1cc2ccc(C3=NCCN3)cc2[nH]1` was tested, and the survivor count (dose: 100.0 mg/kg/injection, schedule: Q04DX003 (ip), vehicle: suspension in saline) was 3 of 6, the survivor count (dose: 200.0 mg/kg/injection, schedule: Q04DX003 (ip), vehicle: suspension in saline) was 3 of 6 and the survivor count (dose: 400.0 mg/kg/injection, schedule: Q04DX003 (ip), vehicle: suspension in saline) was 0 of 6.

For `O=S(=O)(O)c1c(O)ccc2nc3ccccc3nc12`, the T/C [12] was 125 % of control and the survivor count [12] was 5 of 6.

With `CC(C)(C)NSc1nc2ccccc2s1` the survivor count (dose: 100.0 mg/kg/injection, schedule: Q04DX003 (ip), vehicle: saline with Tween-80) was 5 of 6 and the survivor count [8] was 0 of 6.

`CCCCCCCCCCCCCCCCC(C(=O)O)C(O)(CC(=O)O)C(=O)O` (stereo unspecified) was tested, and the survivor count [1] was 0 of 3 and the survivor count [2] was 0 of 3.

For `O=C1C=C(O/C=C/C(C(F)(F)F)C(F)(F)F)C(=O)c2ccccc21`, the T/C (dose: 33.0 mg/kg/injection, schedule: Q01DX009 (ip), vehicle: saline with Tween-80) was 125 % of control, the survivor count (dose: 75.0 mg/kg/injection, schedule: Q01DX009 (ip), vehicle: saline with Tween-80) was 2 of 6 and the survivor count [8] was 3 of 6.

In the case of `COC(=O)/C(=C1/OC(=O)C(c2ccccc2)=C1O)c1ccccc1`, the survivor count [12] is reported as 1 of 3 and the survivor count (dose: 200.0 mg/kg/injection, schedule: Q01DX009 (ip), vehicle: saline) is reported as 0 of 3.

For `C=CC1(C)OC(=NC(C)(C)CO)c2cc(C)c(OC)cc21` (stereo unspecified), the survivor count [6] was 3 of 6.

For `COc1ccc(Cl)c(C)c1C(=O)OC1CC(OC2C(O)CC(OC3CCCC4C3C=CC3CCCC/C=C/C5C=C(C(=O)O)C(C)CC56OC(=O)C(=C6O)OC(=O)C34C)OC2C)OC(C)C1O` (stereo unspecified), the survivor count [3] was 6 of 6.

`Cc1nc(N)c(Cn2ccc(=O)n(Cc3c[n+](C)c(C)nc3N)c2=O)c[n+]1C` was tested, and the survivor count (dose: 100.0 mg/kg/injection, schedule: Q01DX001 (ip), vehicle: saline) was 0 of 6, the survivor count (dose: 200.0 mg/kg/injection, schedule: Q01DX001 (ip), vehicle: saline) was 0 of 6 and the survivor count (dose: 400.0 mg/kg/injection, schedule: Q01DX001 (ip), vehicle: saline) was 0 of 6.

In the case of `COC1NC(=O)Oc2ccccc21` (stereo unspecified), the T/C [6] is reported as 131 % of control and the T/C (dose: 400.0 mg/kg/injection, schedule: Q01DX005 (ip), vehicle: saline with Tween-80) is reported as 140 % of control.

With `O=C1C=C(O)C(=O)C(CC2=C(O)C(=O)C=C(O)C2=O)=C1O` the survivor count (dose: 100.0 mg/kg/injection, schedule: Q01DX005 (ip), vehicle: Klucel (hydroxypropylcellulose) (HPC)) was 0 of 6, 3 of 6, 5 of 6 and the survivor count [7] was 0 of 6.

For `NCC(O)COCc1ccccc1` (stereo unspecified), the survivor count [13] was 0 of 6, the survivor count [14] was 1 of 6 and the survivor count [15] was 0 of 6.

In the case of `CCN(CC)CCNc1ncnc2[nH]ncc12`, the survivor count [16] is reported as 0 of 5.

With `Cc1nc2ccccc2c(=O)n1CC(=O)NNC(N)=S` the survivor count (dose: 100.0 mg/kg/injection, schedule: Q04DX002 (ip), vehicle: saline with Tween-80) was 3 of 6, the survivor count [14] was 0 of 6 and the survivor count (dose: 400.0 mg/kg/injection, schedule: Q04DX002 (ip), vehicle: saline with Tween-80) was 0 of 6.

`CN(C)C=C1C(=O)CCCC1=O` was tested, and the survivor count (dose: 240.0 mg/kg/injection, schedule: Q01DX005 (ip), vehicle: saline) was 2 of 6.

In the case of `Nc1nc(N)c2c(ccc3c2ccn3Cc2cccc([N+](=O)[O-])c2)n1`, the T/C (dose: 3.12 mg/kg/injection, schedule: Q01DX005 (ip), vehicle: saline with Tween-80) is reported as 134 % of control, the T/C (dose: 6.25 mg/kg/injection, schedule: Q01DX005 (ip), vehicle: saline with Tween-80) is reported as 128, 148, 149 % of control and the survivor count [4] is reported as 2 of 5 and 6 of 6.

In the case of `CC1(COC(=O)C2(C)CO2)CO1` (stereo unspecified), the T/C (dose: 100.0 mg/kg/injection, schedule: Q01DX005 (ip), vehicle: water) is reported as 125 % of control and the T/C (dose: 200.0 mg/kg/injection, schedule: Q01DX005 (ip), vehicle: water) is reported as 141 and 143 % of control.

For `CC(C)(C)/C(O)=C/c1nc2ccc(Cl)cc2[nH]c1=O`, the survivor count (dose: 60.0 mg/kg/injection, schedule: Q01DX005 (ip), vehicle: Klucel + Tween-80) was 5 of 5 and the survivor count (dose: 120.0 mg/kg/injection, schedule: Q01DX005 (ip), vehicle: Klucel + Tween-80) was 6 of 6.

In the case of `NSc1ccccn1`, the survivor count [13] is reported as 0 of 6 and the survivor count [15] is reported as 1 of 6.

`CN=NN(C)C(C)=O` was tested, and the survivor count [10] was 6 of 6, the survivor count [11] was 0 of 6 and the survivor count [16] was 0 of 6.

`CC1CCC2(OC1)OC1C(O)C3C4CCC5CC(OC6OC(CO)C(OC7OC(CO)C(O)C(OC8OCC(O)C(O)C8O)C7OC7OC(CO)C(O)C(OC8OC(CO)C(O)C(O)C8O)C7O)C(O)C6O)C(O)CC5(C)C4CCC3(C)C1C2C` (stereo unspecified) was tested, and the survivor count (dose: 5.0 mg/kg/injection, schedule: Q01DX009 (ip), vehicle: saline) was 10 of 10, the survivor count (dose: 10.0 mg/kg/injection, schedule: Q01DX009 (ip), vehicle: saline) was 10 of 10 and the survivor count (dose: 20.0 mg/kg/injection, schedule: Q01DX009 (ip), vehicle: saline) was 10 of 10.
